According to PubChem BioAssay AID504834 (National Center for Advancing Translational Sciences (NCATS), 2011):
The campaign covered roughly 320,000 compounds. About 22,000 (6.9%) were called active. The shares of active, inactive and inconclusive entries below differ from those in the screen. The call rests on the fitted dose curve; in most records, active means well fitted inhibition curve with a large enough effect; inconclusive means small, poorly fitted or top-dose-only effect, or another doubt; inactive means no such curve, though single readings can be large or run the other way. Potencies beside an inconclusive call are fits to weak or partial responses and may not hold up.

test: Primary qHTS for delayed death inhibitors of the malarial parasite plastid, 96 hour incubation; settings: P. falciparum luciferase reporter growth; series mostly up to 28.7 µM; activity change, negative = inhibition: at the top concentration
Outline: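 Parasite growth measured via integrated firefly luciferase reporter in P. falciparum. Infected erythrocytes at 2% hematocrit, 0.05% parasitemia final were treated 96 hours at 37 C under 5% CO2, and luminescence was read.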
On the % scale 0 is the no-effect control and ±100 the full control effect; potency means the concentration at half of the fitted maximal effect.

| Structure (SMILES) | Potency | activity change, negative = inhibition |
| --- | --- | --- |
| Cc1ccc(-c2nn(-c3ccccc3)cc2C(=O)Nc2cccc(S(=O)(=O)N3CCOCC3)c2)cc1 | inconclusive: 18.5 µM [inhibitor, single point] |  |
| COc1ccccc1C1(CC(=O)N2CCCCC2)CCOC(C(C)C)C1 (centres undefined) | active: 14.7 µM |  |
| CCOC(=O)c1c(NC(=O)COC)sc(C)c1C | inconclusive: 18.5 µM [inhibitor, single point] |  |
| CCCC(c1nnnn1Cc1ccc(OC)cc1)N1CCC(C(N)=O)CC1 (centres undefined) |  | inactive: 5.13% |
| CC(C)c1ccc(C2NC(=O)NC3=C2CCc2ccccc23)cc1 (centres undefined) | inconclusive: 2.94 µM [inhibitor, single point] |  |
| Cc1ccc(-c2nn(-c3ccccc3)cc2CSC(=N)N)cc1 | active: 1.65 µM |  |
| CC(C)c1ccc2[nH]c3nc(SCC(=O)N4CCOCC4)nnc3c2c1 | inconclusive: 18.5 µM [inhibitor, single point] |  |
| N#CC1=C(N)N2C(=C(C#N)C1c1ccc(Br)cc1)Nc1ccccc12 (centres undefined) | active: 9.28 µM |  |
| Cc1occc1-c1nnc(SCC(=O)NC2CCC(C)CC2)o1 (centres undefined) |  | inactive: 3.54% |
| COc1ccc(CN=C(Nc2ccccc2)SC2CC(=O)NC2=O)cc1 (centres undefined) |  | inactive: 18.1% |
| Cc1nc2ccccc2n1CC(O)COc1ccccc1Cl (centres undefined) | inconclusive: 10.4 µM [inhibitor, single point] |  |
| Cc1cc(=O)n(C)c(=O)n1CCCCCCN1CCCC1 | inconclusive: 18.5 µM [inhibitor, single point] |  |
| Cc1ccc(/C=N/NC(=S)Nc2cccc(S(=O)(=O)N(C)C)c2)o1 | active: 6.57 µM |  |
| COC(=O)c1cc(C)sc1NC(=O)CC1Nc2ccccc2NC1=O (centres undefined) | inconclusive: 2.94 µM [inhibitor, single point] |  |
| Cc1ccc(C(C(=O)NC2CCCCC2)N(C(=O)CCCC(=O)Nc2ccccn2)c2ccc3c(c2)OCCO3)cc1 (centres undefined) | inconclusive: 18.5 µM [inhibitor, single point] |  |
| OC(CN1CCN(c2ccccc2Cl)CC1)c1ccccc1 (centres undefined) | inconclusive: 16.5 µM [inhibitor, single point] |  |
| COc1ccccc1/C=N/NC(=O)c1c(-c2ccccc2)noc1C | active: 2.08 µM |  |
| CC(C)(C)OC(=O)N1CCC(c2c(C(=O)O)cnn2-c2ccccc2)CC1 | inconclusive: 18.5 µM [inhibitor, single point] |  |
| COc1ccc(-c2nn(C)c(=O)c3ccccc23)cc1NC(=O)Cn1nc(C)c2ccccc2c1=O |  | inactive: 7.66% |
| Cc1ccc(C(=O)NC2CCCCCC2)cc1N1CCCC1=O | inconclusive: 10.4 µM [inhibitor, single point] |  |
| CN1C(=O)/C(=C/c2ccccc2F)Sc2ccc(C(=O)NCC3CCCO3)cc21 (centres undefined) | inconclusive: 1.47 µM [inhibitor, partial curve, poor fit] |  |
| CC1CCC(C(C)C)C(OCC(O)CN2CCN(Cc3ccccc3)CC2)C1 (centres undefined) | inconclusive: 5.22 µM [inhibitor, partial curve, poor fit] |  |
| COc1ccc(NC(=O)C(NCC(C)C)c2ccccc2)cc1Cl (centres undefined) | inconclusive: 18.5 µM [inhibitor, single point] |  |

| Structure (SMILES) | Potency | activity change, negative = inhibition |
| --- | --- | --- |
| O=C(Nc1ccccc1)c1ccc(NCC2CCCO2)c(S(=O)(=O)N2CCOCC2)c1 (centres undefined) |  | inactive: -28.7% |
| O=C(c1ccc(Cl)cc1)C1CCCN(Cc2cccn2-c2cccnc2)C1 (centres undefined) |  | inactive: 1.21% |
| O=C1CC(CC(=O)N/N=C/c2ccccc2[N+](=O)[O-])=NN1 | inconclusive: 9.28 µM [inhibitor, partial curve, poor fit] |  |
| CS(=O)(=O)N1Cc2ccccc2CC1C(=O)Nc1ccccc1C(N)=O (centres undefined) |  | inactive: -9.76% |
| CCCCCc1ccc(C2=NNC(=O)CC2)cc1 | inconclusive: 10.4 µM [inhibitor, single point] |  |
| Cc1c(C(C)C)c(=O)n(-c2ccc(S(=O)(=O)NC3CCCCC3)cc2)n1C | inconclusive: 13.1 µM [inhibitor, partial curve, poor fit] |  |
| Cc1cc(C(=O)N/N=C/c2ccccn2)c2ccccc2n1 |  | inactive: -1.75% |
| Cc1ccc(C)c(Nc2nc3nonc3nc2N2CCOCC2)c1 |  | inactive: 3.13% |
| Cc1cc(NC(=O)CN2CCN(Cc3ccccc3)CC2)nc2c1c(=O)oc1ccccc12 | inconclusive: 18.5 µM [inhibitor, single point] |  |
| Cc1ccc(C)c(NC(=O)CSc2nnc([C@@H](N)Cc3c[nH]c4ccccc34)o2)c1 | inconclusive: 0.294 µM [inhibitor, full curve, poor fit] |  |
| COc1cc(NC(=O)c2ccccc2Cl)c2ncccc2c1 | inconclusive: 3.7 µM [inhibitor, partial curve, poor fit] |  |
| O=C(O)c1ccc(/C=C2\SC(=Nc3ccccc3)N(c3ccccc3)C2=O)cc1 | active: 0.294 µM |  |
| CCOc1cccc(/C=N/Nc2ccc(S(=O)(=O)N(CC)CC)cn2)c1O | active: 2.62 µM |  |
| COCCn1ccc2c(OCC(=O)Nc3cccc(NC(C)=O)c3)cccc2c1=O | inconclusive: 11.7 µM [inhibitor, partial curve, poor fit] |  |
| CCOC(=O)C1(Cc2cccc(F)c2)CCN(Cc2ccon2)CC1 | inconclusive: 10.4 µM [inhibitor, single point] |  |
| O=C1COc2ccc(C(=O)CSc3nc4ccccc4c(=O)n3-c3ccc(Cl)c(Cl)c3)cc2N1 | inconclusive: 7.38 µM [inhibitor, partial curve, poor fit] |  |
| Cc1ccc(NC(=O)Cc2nnc(SCC(=O)c3ccc(Br)cc3)n2C)cc1Cl |  | inactive: 28.7% |
| N#Cc1c(-c2ccccc2)nc(SCc2nc(N)nc(N3CCCCC3)n2)[nH]c1=O | inconclusive: 18.5 µM [inhibitor, single point] |  |
| Cc1ccc(-c2nc(-c3ccccn3)sc2CC(=O)O)cc1 |  | inactive: 15.6% |
| CCOC(=O)c1nc(N/N=C/c2ccccc2)sc1Br | inconclusive: 18.5 µM [inhibitor, single point] |  |
| CCOc1ccccc1N(CC(=O)NCCc1ccccc1)C(=O)CCC(=O)Nc1ccccn1 | inconclusive: 11.7 µM [inhibitor, partial curve, poor fit] |  |
| N#CC1=C(N)Oc2n[nH]c(-c3cccs3)c2C1c1ccncc1 (centres undefined) | inconclusive: 10.4 µM [inhibitor, single point] |  |
| Cc1ccccc1C(=O)NNC(=O)C(=O)N1CCCCC1 | inconclusive: 13.1 µM [inhibitor, single point] |  |

2 of the compounds above, with tabs.
Structure (SMILES)	Potency	activity change, negative = inhibition
COc1ccccc1C1(CC(=O)N2CCCCC2)CCOC(C(C)C)C1 (centres undefined)	active: 14.7 µM	
CCOC(=O)c1c(NC(=O)COC)sc(C)c1C	inconclusive: 18.5 µM [inhibitor, single point]	

In a second layout: results already given
O=C(O)c1ccc(/C=C2\SC(=Nc3ccccc3)N(c3ccccc3)C2=O)cc1
  Potency: active: 0.294 µM
CCOc1cccc(/C=N/Nc2ccc(S(=O)(=O)N(CC)CC)cn2)c1O
  Potency: active: 2.62 µM

Later entries

| Structure (SMILES) | Potency | activity change, negative = inhibition |
| --- | --- | --- |
| O=c1nc(Nc2ccccc2)sc2ccc([N+](=O)[O-])cc12 | inconclusive: 18.5 µM [inhibitor, single point] |  |
| Cc1nn(-c2ccccc2)c(N)c1N=Nc1ccc(Cl)cc1 |  | inactive: 166% |
| CCOC(=O)c1cc2[nH]c3ccccc3c2[n+](-c2ccc([N+](=O)[O-])cc2)c1C | inconclusive: 18.5 µM [inhibitor, single point] |  |
| CN(C)CCCSc1nc(-c2ccccc2)nc2c1CCC2 | inconclusive: 18.5 µM [inhibitor, single point] |  |
| O=C(NC12CC3CC(CC(C3)C1)C2)OCCNC1CCCCC1 | active: 10.4 µM |  |
| Cc1cc(C(F)(F)F)nc(CCNCc2c(C(=O)N3CCCC3)nc3ccccn23)n1 | inconclusive: 9.28 µM [inhibitor, single point] |  |
| CCS(=O)(=O)Nc1cccc(C2=NN(S(=O)(=O)c3ccc(F)cc3)C(c3cccs3)C2)c1 (centres undefined) | active: 8.28 µM |  |
| ONc1cccnc1-n1nc(C(F)(F)F)cc1C(F)(F)F | inconclusive: 18.5 µM [inhibitor, single point] |  |
| Cc1cnccc1CNC(=O)CC1C(=O)NCCN1CC(C)(C)C (centres undefined) |  | inactive: 219% |
| O=[N+]([O-])c1cc(-c2nc3nc4ccccc4nc3n2CCc2ccccc2)cc([N+](=O)[O-])c1 | inconclusive: 13.1 µM [inhibitor, partial curve, poor fit] |  |
| Cc1ccc(NC(=O)C2COc3ccccc3O2)cc1C (centres undefined) | inconclusive: 3.7 µM [inhibitor, partial curve, poor fit] |  |
| O=C(COC(=O)c1ccc(NS(=O)(=O)c2cccs2)cc1O)NCc1ccccc1 |  | inactive: 8.12% |
| CCCOc1ccc(C(=O)C(CCC(CNCC)C(=O)c2ccc(OCCC)cc2)CNCC)cc1 (centres undefined) | inconclusive: 9.28 µM [inhibitor, partial curve, poor fit] |  |
| CCOC(=O)c1cc(C)sc1N1C(=O)C2C3C=CC(C3)C2C1=O (centres undefined) | inconclusive: 2.62 µM [inhibitor, partial curve] |  |
| CC(C)c1ccc(/C=C2\C(=O)N(CCN3CCOCC3)C(=S)N2C)cc1 |  | inactive: -0.667% |
| O=C1C=C(c2cccc(Cl)c2)C[C@@H](c2ccc3c(c2)OCO3)C1 | inconclusive: 14.7 µM [inhibitor, partial curve, poor fit] |  |
| CCc1ccc(C(=O)/C=C/c2ccc([N+](=O)[O-])o2)cc1 |  | inactive: 20.4% |
| CCCOc1ccc(N2C(=O)CC(N3CCC(C(=O)OCC)CC3)C2=O)cc1 (centres undefined) |  | inactive: -22.4% |
| O=C1Nc2ccccc2/C1=N\N=C\c1ccc(O)c(O)c1 |  | inactive: -2.27% |
| O=C(NC12CC3CC(CC(C3)C1)C2)c1ccc([N+](=O)[O-])o1 | inconclusive: 9.28 µM [inhibitor, single point] |  |
| CCOC(=O)c1cc2c(=O)n3ccccc3nc2n(C(C)C)c1=NC(=O)c1c(-c2c(F)cccc2Cl)noc1C | inconclusive: 1.65 µM [inhibitor, full curve, poor fit] |  |
| CN(CC(=O)Nc1ccc(F)cc1)C(=O)c1cccc(NS(=O)(=O)c2ccccc2)c1 | inconclusive: 18.5 µM [inhibitor, single point] |  |
